For the test, the target named is T1, PIAS3 (human (in human breast cancer cells)) (UniProt Q9Y6X2).
T1 sequence: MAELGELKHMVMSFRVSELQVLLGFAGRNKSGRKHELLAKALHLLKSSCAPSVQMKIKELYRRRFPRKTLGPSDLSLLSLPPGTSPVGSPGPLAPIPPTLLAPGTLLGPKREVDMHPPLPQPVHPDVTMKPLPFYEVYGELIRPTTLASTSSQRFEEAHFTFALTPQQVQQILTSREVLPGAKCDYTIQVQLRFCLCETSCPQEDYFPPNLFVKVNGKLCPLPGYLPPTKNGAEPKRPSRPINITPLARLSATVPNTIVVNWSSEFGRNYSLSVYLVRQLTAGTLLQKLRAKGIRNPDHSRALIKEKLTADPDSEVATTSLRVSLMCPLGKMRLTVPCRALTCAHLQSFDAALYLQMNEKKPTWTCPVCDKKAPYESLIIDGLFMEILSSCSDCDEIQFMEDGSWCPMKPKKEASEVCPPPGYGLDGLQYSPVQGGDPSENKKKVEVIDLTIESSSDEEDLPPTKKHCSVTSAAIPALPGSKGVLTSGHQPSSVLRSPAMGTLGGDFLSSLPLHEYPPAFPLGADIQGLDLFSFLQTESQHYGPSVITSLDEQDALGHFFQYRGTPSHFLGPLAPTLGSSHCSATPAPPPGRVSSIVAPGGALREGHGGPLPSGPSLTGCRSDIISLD
Briefly: proximity ligation.

Sequences of proteins named here, by UniProt entry; tags and fusion partners are left off.
UniProt P40763: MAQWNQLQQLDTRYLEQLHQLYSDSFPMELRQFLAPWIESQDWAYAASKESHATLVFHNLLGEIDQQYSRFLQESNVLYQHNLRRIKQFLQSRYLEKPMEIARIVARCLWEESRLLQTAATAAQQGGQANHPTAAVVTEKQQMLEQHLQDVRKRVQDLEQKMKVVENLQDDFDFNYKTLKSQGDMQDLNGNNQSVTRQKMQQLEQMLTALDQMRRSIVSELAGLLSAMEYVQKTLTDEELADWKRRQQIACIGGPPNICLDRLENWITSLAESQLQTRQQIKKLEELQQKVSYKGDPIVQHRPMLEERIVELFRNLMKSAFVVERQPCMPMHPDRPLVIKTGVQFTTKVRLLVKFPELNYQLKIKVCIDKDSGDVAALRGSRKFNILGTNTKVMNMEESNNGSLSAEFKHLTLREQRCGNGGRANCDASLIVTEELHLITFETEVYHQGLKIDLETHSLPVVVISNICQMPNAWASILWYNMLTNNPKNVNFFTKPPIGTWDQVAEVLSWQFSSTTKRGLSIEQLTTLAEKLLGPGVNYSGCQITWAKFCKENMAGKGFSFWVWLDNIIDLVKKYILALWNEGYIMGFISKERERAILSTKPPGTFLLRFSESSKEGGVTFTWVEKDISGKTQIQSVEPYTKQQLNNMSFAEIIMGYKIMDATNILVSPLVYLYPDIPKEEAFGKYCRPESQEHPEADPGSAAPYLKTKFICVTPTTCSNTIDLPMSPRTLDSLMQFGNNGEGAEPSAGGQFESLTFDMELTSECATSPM

This is an account of results in doi:10.1101/2021.05.26.443198.

Results are given in words; binding and its absence hold for the method and conditions named. In cells and extracts the contact can be indirect. Some binding calls cover weakened binding; strength is not graded here.

Take STAT3 (from UniProt P40763 1-770): the binding entry is given as “binds”.
